PubChem BioAssay AID652243, Drosophila RNAi Screening Center | 2013

Screen: 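Fly genes required for human androgen receptor driven transcription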 (primary screen)
Cells: Drosophila S2R+ cells
Reagents: long dsRNA against Drosophila genes
Time to read-out: 72 h (48 h, then 24 h hormone)
Challenge: synthetic androgen R1881 at 10 nM for 24 h
Detection: 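Per-well raw luminescence of the androgen-driven firefly reporter and of the Renilla control, two replicates each, without normalisation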
Scale: firefly reporter light: higher = more light from androgen-responsive reporter; Renilla control light: higher = more constitutive control signal (cell number, transfection)
Rule for the call: 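Across duplicate plates, a knock-down whose log firefly/Renilla ratio shifted a set fold down or up from the GFP/LacZ control mean was a hit; the downward cut appears as both 1.5 and 3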
Meaning of the calls: active = hit: reporter lowered or raised; inactive = no hit
The deposit covers about 24,000 reagents; this is a random part of those with a known target gene and a result. Over the whole deposit, 246 (1%) got an active call. 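Plates not normalised; calls are printed but the firefly/Renilla ratio behind them is not deposited; fold cut for lowering reported inconsistently.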 Raw values vary from plate to plate and are shown uncorrected. Names joined by + are all predicted targets of the reagent. Not stated in the record: the amount of reagent.

| target | DRSC id | firefly reporter light, replicate 1 | firefly reporter light, replicate 2 | Renilla control light, replicate 1 | Renilla control light, replicate 2 | call |
| --- | --- | --- | --- | --- | --- | --- |
| SkpB (SKP1-related B) | DRSC07683 | 5.04e5 | 2.93e5 | 1.74e6 | 1.86e6 | inactive |
| SkpB (SKP1-related B) | DRSC25160 | 1.95e5 | 1.97e5 | 5.82e5 | 3.94e5 | inactive |
| thoc7 | DRSC08512 | 6.21e5 | 6.62e5 | 1.36e6 | 6.20e5 | inactive |
| thoc7 | DRSC29470 | 6.05e5 | 6.03e5 | 7.53e5 | 7.53e5 | inactive |
| His3:CG33818 + His3:CG33857 + His3:CG33806 + 20 more | DRSC21267 | 1.44e5 | 1.67e5 | 18333 | 10207 | inactive |
| brun (brunelleschi) | DRSC02706 | 9.22e5 | 1.08e6 | 1.09e6 | 1.21e6 | inactive |
| CG16743 | DRSC24981 | 1.01e6 | 1.14e6 | 8.71e5 | 8.77e5 | inactive |
| CG33630 | DRSC14546 | 77487 | 1.10e5 | 1.35e6 | 9.74e5 | inactive |
| Lst (Limostatin) | DRSC07146 | 1.43e5 | 1.67e5 | 2.41e6 | 2.41e6 | inactive |
| Lst (Limostatin) | DRSC29304 | 2.93e5 | 4.45e5 | 9.36e5 | 1.03e6 | inactive |
| CG10154 | DRSC09707 | 1.49e5 | 1.60e5 | 1.35e6 | 1.43e6 | inactive |
| nAChRbeta2 (nicotinic Acetylcholine Receptor beta2) | DRSC17010 | 94700 | 89854 | 5.78e5 | 5.39e5 | inactive |
| CG5707 | DRSC08573 | 6.76e5 | 7.61e5 | 1.10e6 | 1.87e6 | inactive |
| CG5707 | DRSC24854 | 6.44e5 | 7.70e5 | 6.99e5 | 8.75e5 | inactive |
| rg (rugose) | DRSC17726 | 90959 | 50890 | 5.76e5 | 4.46e5 | inactive |
| rg (rugose) | DRSC18049 | 3.26e5 | 2.82e5 | 2.45e6 | 2.33e6 | inactive |
| rg (rugose) | DRSC29144 | 6.52e5 | 6.08e5 | 1.24e6 | 1.11e6 | inactive |
| rg (rugose) | DRSC36613 | – | – | – | – | inactive |
| rg (rugose) | DRSC36614 | – | – | – | – | inactive |
| CG17821 | DRSC06696 | 1.00e5 | 1.24e5 | 1.13e6 | 1.09e6 | inactive |
| CG41281 (retired record) | DRSC38734 | 8.86e5 | 8.01e5 | 1.78e6 | 2.37e6 | inactive |
| Spase22-23 (Spase 22/23-subunit) | DRSC15857 | 2.51e5 | 2.02e5 | 2.42e6 | 2.45e6 | inactive |
| CG12729 | DRSC17884 | 1.73e5 | 2.93e5 | 1.94e6 | 2.08e6 | inactive |
| CG12729 | DRSC27092 | 1.78e5 | 2.90e5 | 3.90e5 | 4.49e5 | inactive |
| Lsm10 | DRSC06250 | 1.60e5 | 1.14e5 | 1.32e6 | 6.89e5 | inactive |
| Lam (Lamin) | DRSC03359 | 85457 | 91900 | 4.90e5 | 4.76e5 | inactive |
| Lam (Lamin) | DRSC28152 | 4.57e5 | 3.70e5 | 1.54e6 | 1.39e6 | inactive |
| CG9316 | DRSC03195 | 65061 | 1.00e5 | 9.30e5 | 1.21e6 | inactive |
| CG8349 | DRSC03083 | 1.54e5 | 1.43e5 | 1.26e6 | 1.32e6 | inactive |
| Pp2B-14D (Protein phosphatase 2B at 14D) | DRSC20270 | 3.60e5 | 3.44e5 | 2.18e6 | 2.13e6 | inactive |
| Pp2B-14D (Protein phosphatase 2B at 14D) | DRSC23315 | 7.45e5 | 9.57e5 | 1.87e6 | 1.78e6 | inactive |
| CG3744 | DRSC15511 | 1.16e5 | 1.32e5 | 2.02e6 | 1.78e6 | inactive |
| CG3744 | DRSC29964 | 4.42e5 | 3.52e5 | 1.16e6 | 9.67e5 | inactive |
| CG32269 + CG32270 | DRSC08195 | 1.04e5 | 91793 | 1.47e6 | 1.82e6 | inactive |
| Tps1 (Trehalose-6-phosphate synthase 1) | DRSC00269 | 6.15e5 | 7.25e5 | 1.21e6 | 1.54e6 | inactive |
| Tps1 (Trehalose-6-phosphate synthase 1) | DRSC27331 | 3.54e5 | 3.53e5 | 6.12e5 | 7.01e5 | inactive |
| SPoCk (Secretory Pathway Calcium atpase) | DRSC11675 | 1.87e5 | 1.72e5 | 1.78e6 | 1.52e6 | inactive |
| SPoCk (Secretory Pathway Calcium atpase) | DRSC11706 | 1.74e5 | 1.27e5 | 1.92e6 | 2.07e6 | inactive |
| SPoCk (Secretory Pathway Calcium atpase) | DRSC11844 | 2.43e5 | 1.95e5 | 1.75e6 | 2.00e6 | inactive |
| SPoCk (Secretory Pathway Calcium atpase) | DRSC11845 | 2.55e5 | 1.88e5 | 1.78e6 | 2.35e6 | inactive |
| SPoCk (Secretory Pathway Calcium atpase) | DRSC24007 | 7.64e5 | 6.49e5 | 5.30e5 | 5.03e5 | inactive |
| CG6567 | DRSC16066 | 97782 | 1.07e5 | 1.40e6 | 1.31e6 | inactive |
| Usp39 (Ubiquitin specific protease 39) | DRSC20032 | 1.05e5 | 1.02e5 | 6.98e5 | 8.43e5 | inactive |
| Usp39 (Ubiquitin specific protease 39) | DRSC29836 | 4.06e5 | 3.99e5 | 1.66e6 | 1.61e6 | inactive |
| CG10472 | DRSC09730 | 7.70e5 | 1.10e6 | 1.10e6 | 1.47e6 | inactive |
| CG10472 | DRSC25310 | 1.00e6 | 1.11e6 | 1.21e6 | 1.12e6 | inactive |
| Flo1 (Flotillin 1) | DRSC07427 | 1.21e6 | 1.24e6 | 2.16e6 | 2.65e6 | inactive |
| Flo1 (Flotillin 1) | DRSC28122 | 9.52e5 | 8.26e5 | 1.62e6 | 1.34e6 | inactive |
| stol (stolid) | DRSC01956 | 1.04e5 | 1.11e5 | 1.55e6 | 1.77e6 | inactive |
| CG42296 | DRSC00394 | 1.01e5 | 82626 | 4.78e5 | 6.96e5 | inactive |
| Dhdds (Dehydrodolichyl diphosphate synthase subunit) | DRSC17756 | 3.00e5 | 2.66e5 | 2.16e6 | 2.51e6 | inactive |
| Dhdds (Dehydrodolichyl diphosphate synthase subunit) | DRSC29011 | 3.98e5 | 3.12e5 | 7.82e5 | 6.81e5 | inactive |
| CG4476 | DRSC10424 | 1.79e5 | 1.68e5 | 1.75e6 | 1.37e6 | inactive |
| CG4476 | DRSC25362 | 7.11e5 | 1.12e6 | 1.07e6 | 1.16e6 | inactive |
| CG15653 | DRSC04244 | 3.21e5 | 3.45e5 | 2.03e6 | 1.62e6 | inactive |
| CG33298 | DRSC02210 | 82600 | 96471 | 1.16e6 | 9.21e5 | inactive |
| CG33298 | DRSC02672 | 1.17e6 | 8.59e5 | 2.37e6 | 1.84e6 | inactive |
| CG12204 | DRSC19442 | 90262 | 1.23e5 | 6.23e5 | 6.37e5 | inactive |
| CG12204 | DRSC26143 | 3.34e5 | 3.39e5 | 7.83e5 | 7.50e5 | inactive |

6 entries from above, sorted by “firefly reporter light, replicate 2”, low to high.
| target | DRSC id | firefly reporter light, replicate 1 | firefly reporter light, replicate 2 | Renilla control light, replicate 1 | Renilla control light, replicate 2 | call |
| --- | --- | --- | --- | --- | --- | --- |
| CG33298 | DRSC02210 | 82600 | 96471 | 1.16e6 | 9.21e5 | inactive |
| CG4476 | DRSC10424 | 1.79e5 | 1.68e5 | 1.75e6 | 1.37e6 | inactive |
| Dhdds (Dehydrodolichyl diphosphate synthase subunit) | DRSC29011 | 3.98e5 | 3.12e5 | 7.82e5 | 6.81e5 | inactive |
| CG15653 | DRSC04244 | 3.21e5 | 3.45e5 | 2.03e6 | 1.62e6 | inactive |
| CG33298 | DRSC02672 | 1.17e6 | 8.59e5 | 2.37e6 | 1.84e6 | inactive |
| CG4476 | DRSC25362 | 7.11e5 | 1.12e6 | 1.07e6 | 1.16e6 | inactive |
